## Drug screen on melanoma cell lines: apoptosis marker

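Human melanoma cell lines in 1,536-well plates were treated with two drugs together for 72 h, then fixed, stained and imaged. The read-out is the fraction of cleaved-PARP-positive nuclei, in % of that fraction in the DMSO control; 200 means twice the control level of this apoptosis marker. Every drug was used at one fixed concentration, the higher of two screened. These are primary screening values without error estimates. The marker varies much from line to line, for technical or biological reasons.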
An unselected part of the screen is shown.

Drug key:
lenalidomide: Nc1cccc2c1CN(C1CCC(=O)NC1=O)C2=O (stereo not shown) at 5 µM
dasatinib: Cc1nc(Nc2ncc(C(=O)Nc3c(C)cccc3Cl)s2)cc(N2CCN(CCO)CC2)n1 at 0.02 µM
VX-702: NC(=O)c1ccc(N(C(N)=O)c2c(F)cccc2F)nc1-c1ccc(F)cc1F at 2 µM
nutlin-3: COc1ccc(C2=N[C@@H](c3ccc(Cl)cc3)[C@@H](c3ccc(Cl)cc3)N2C(=O)N2CCNC(=O)C2)c(OC(C)C)c1 at 0.5 µM
ENMD-2076: Cc1cc(Nc2cc(N3CCN(C)CC3)nc(/C=C/c3ccccc3)n2)n[nH]1 at 0.2 µM
PD173074: CCN(CC)CCCCNc1ncc2cc(-c3cc(OC)cc(OC)c3)c(NC(=O)NC(C)(C)C)nc2n1 at 0.5 µM
KU-55933: O=c1cc(-c2cccc3c2Sc2ccccc2S3)oc(N2CCOCC2)c1 at 5 µM
fingolimod: CCCCCCCCc1ccc(CCC(N)(CO)CO)cc1 at 10 µM
CP-690550: C[C@@H]1CCN(C(=O)CC#N)C[C@@H]1N(C)c1ncnc2[nH]ccc12 at 5 µM

VX-702 + PD173074 gave A101D: 86.9; UACC-257: 38.4.
ENMD-2076 + VX-702 gave A101D: 78.9; UACC-257: 42.2.
CP-690550 + VX-702 gave A101D: 50.1; UACC-257: 36.6.
PD173074 + ENMD-2076 gave A101D: 250; UACC-257: 22.2.
dasatinib + VX-702 gave A101D: 159; UACC-257: 29.9.
KU-55933 + lenalidomide gave A101D: 162; UACC-257: 39.2.
fingolimod + ENMD-2076 gave A101D: 1520; UACC-257: 64.4.
dasatinib + fingolimod gave A101D: 1740; UACC-257: 113.
KU-55933 + nutlin-3 gave A101D: 474; UACC-257: 39.5.
ENMD-2076 + lenalidomide gave A101D: 92.0; UACC-257: 50.6.
nutlin-3 + lenalidomide gave A101D: 102; UACC-257: 60.9.
VX-702 + nutlin-3 gave A101D: 186; UACC-257: 86.0.
nutlin-3 + PD173074 gave A101D: 118; UACC-257: 35.7.
fingolimod + PD173074 gave A101D: 1040; UACC-257: 33.0.
dasatinib + PD173074 gave A101D: 325; UACC-257: 24.3.
dasatinib + nutlin-3 gave A101D: 157; UACC-257: 58.1.
KU-55933 + fingolimod gave A101D: 3960; UACC-257: 260.
PD173074 + lenalidomide gave A101D: 75.4; UACC-257: 9.8.
KU-55933 + CP-690550 gave A101D: 314; UACC-257: 38.9.
KU-55933 + VX-702 gave A101D: 417; UACC-257: 65.5.
CP-690550 + ENMD-2076 gave A101D: 54.6; UACC-257: 74.0.

From a melanoma drug combination screen (doi:10.1371/journal.pone.0140310); values rounded.